# Source: US6828392 (dated 2004)
# Tests used:
# [1] = general procedure: Fmoc solid-phase peptide synthesis; HYDRA resin 4c (photolabile linker); Fmoc amino acid OPfp esters/HOAt or Fmoc amino acid/TBTU/N-ethyl morpholine; conditions: whole synthesis, RP-HPLC; run 1
# [2] = general procedure: Fmoc solid-phase peptide synthesis; PEGA800; Fmoc amino acid OPfp esters/HOAt or Fmoc amino acid/TBTU/N-ethyl morpholine; conditions: whole synthesis, RP-HPLC; run 2
substance,measurement,setting,value
AcY(NO2)FN(Trt)PLAVK(Boc-Abz),crude HPLC purity,[1],greater than 95% pure
same,crude HPLC purity,[2],95%
